Results are given in words; binding and its absence hold for the method and conditions named. Some binding calls cover weakened binding; strength is not graded here.
Biological target: native human IGF-IR on human tumor cells (human) (UniProt P08069)
Test: competition with 125I-IGF-I for binding to native IGF-IR on MCF7 cells; cold IGF-II titrated

Sequences of proteins named here, by UniProt entry; tags and fusion partners are left off. Residues count along the entry.
UniProt P08069, residues 31-1367: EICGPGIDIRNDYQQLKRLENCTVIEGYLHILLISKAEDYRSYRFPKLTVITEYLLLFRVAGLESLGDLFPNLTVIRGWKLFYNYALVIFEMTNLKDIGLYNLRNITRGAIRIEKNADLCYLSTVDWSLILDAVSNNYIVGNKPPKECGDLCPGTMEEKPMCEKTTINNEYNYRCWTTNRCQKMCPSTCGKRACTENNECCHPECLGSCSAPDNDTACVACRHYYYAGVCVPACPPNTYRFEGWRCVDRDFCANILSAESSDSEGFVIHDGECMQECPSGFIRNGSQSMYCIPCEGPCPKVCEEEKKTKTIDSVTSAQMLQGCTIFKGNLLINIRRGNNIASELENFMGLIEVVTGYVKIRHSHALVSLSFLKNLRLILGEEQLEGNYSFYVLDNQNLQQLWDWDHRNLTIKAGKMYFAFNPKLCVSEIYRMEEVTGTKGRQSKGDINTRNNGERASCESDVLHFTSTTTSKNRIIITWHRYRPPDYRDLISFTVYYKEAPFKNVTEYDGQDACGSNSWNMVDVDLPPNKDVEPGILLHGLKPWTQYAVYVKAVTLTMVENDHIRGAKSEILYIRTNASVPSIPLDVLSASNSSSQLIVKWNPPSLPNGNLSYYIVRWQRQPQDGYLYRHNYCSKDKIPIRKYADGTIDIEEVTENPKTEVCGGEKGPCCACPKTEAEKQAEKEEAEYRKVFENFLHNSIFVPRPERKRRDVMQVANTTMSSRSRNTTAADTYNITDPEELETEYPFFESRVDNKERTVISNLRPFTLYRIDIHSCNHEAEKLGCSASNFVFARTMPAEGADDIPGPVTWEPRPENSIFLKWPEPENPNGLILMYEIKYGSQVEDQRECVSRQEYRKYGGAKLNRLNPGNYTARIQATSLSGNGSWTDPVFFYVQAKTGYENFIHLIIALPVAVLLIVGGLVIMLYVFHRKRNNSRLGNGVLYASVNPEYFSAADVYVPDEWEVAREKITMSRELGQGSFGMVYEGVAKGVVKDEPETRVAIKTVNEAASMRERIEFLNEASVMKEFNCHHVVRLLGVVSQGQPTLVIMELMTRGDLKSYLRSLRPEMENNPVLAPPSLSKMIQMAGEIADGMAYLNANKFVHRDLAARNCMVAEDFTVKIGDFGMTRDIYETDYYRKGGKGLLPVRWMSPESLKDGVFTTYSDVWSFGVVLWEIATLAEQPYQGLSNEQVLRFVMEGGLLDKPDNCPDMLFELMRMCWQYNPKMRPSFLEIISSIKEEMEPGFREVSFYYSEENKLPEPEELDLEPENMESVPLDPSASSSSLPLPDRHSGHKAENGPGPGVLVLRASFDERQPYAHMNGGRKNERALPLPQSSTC
UniProt P01344, residues 25-91: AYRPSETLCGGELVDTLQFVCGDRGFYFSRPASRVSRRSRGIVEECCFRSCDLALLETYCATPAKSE

- binding: binds
Substance: IGF-II (from UniProt P01344 25-91) (ligand)

Source: patent US20100028342A1
